This passage reports binding results from paper PMC7226807.

Amino acid sequences for entries named in this document (tags omitted). Residues count along the entry.
UniProt Q13283: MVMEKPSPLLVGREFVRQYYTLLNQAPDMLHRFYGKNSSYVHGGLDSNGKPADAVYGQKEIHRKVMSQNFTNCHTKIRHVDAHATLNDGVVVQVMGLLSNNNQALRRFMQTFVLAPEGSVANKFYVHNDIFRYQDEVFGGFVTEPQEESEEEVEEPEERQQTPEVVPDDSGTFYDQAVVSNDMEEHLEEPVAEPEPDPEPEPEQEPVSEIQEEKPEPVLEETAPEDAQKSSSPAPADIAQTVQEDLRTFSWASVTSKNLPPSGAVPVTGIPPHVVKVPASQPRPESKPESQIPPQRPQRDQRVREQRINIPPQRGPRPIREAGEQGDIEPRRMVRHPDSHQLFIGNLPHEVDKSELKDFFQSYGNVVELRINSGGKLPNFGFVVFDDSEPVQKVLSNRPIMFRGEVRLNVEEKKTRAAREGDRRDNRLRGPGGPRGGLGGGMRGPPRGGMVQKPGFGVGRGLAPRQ
UniProt P14625, residues 22-803: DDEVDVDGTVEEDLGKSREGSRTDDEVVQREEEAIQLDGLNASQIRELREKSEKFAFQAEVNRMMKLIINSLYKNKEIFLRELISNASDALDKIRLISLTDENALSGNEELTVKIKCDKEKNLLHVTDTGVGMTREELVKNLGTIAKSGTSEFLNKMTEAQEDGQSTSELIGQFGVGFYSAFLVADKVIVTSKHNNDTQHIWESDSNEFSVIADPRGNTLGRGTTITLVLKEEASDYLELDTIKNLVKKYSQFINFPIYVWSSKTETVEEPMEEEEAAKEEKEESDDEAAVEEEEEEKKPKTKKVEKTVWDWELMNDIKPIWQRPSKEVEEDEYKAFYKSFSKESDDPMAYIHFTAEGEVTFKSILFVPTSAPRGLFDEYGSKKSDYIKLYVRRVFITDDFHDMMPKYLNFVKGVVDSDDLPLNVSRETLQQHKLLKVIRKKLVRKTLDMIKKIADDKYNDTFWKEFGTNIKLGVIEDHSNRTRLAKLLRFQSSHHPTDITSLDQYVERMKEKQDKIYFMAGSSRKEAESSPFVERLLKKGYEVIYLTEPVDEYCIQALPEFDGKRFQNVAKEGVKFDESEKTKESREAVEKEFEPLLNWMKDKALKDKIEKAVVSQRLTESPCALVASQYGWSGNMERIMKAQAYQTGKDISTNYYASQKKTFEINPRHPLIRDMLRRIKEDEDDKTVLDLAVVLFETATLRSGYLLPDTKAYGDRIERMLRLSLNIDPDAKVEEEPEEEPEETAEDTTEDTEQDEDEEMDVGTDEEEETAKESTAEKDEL
UniProt Q15717: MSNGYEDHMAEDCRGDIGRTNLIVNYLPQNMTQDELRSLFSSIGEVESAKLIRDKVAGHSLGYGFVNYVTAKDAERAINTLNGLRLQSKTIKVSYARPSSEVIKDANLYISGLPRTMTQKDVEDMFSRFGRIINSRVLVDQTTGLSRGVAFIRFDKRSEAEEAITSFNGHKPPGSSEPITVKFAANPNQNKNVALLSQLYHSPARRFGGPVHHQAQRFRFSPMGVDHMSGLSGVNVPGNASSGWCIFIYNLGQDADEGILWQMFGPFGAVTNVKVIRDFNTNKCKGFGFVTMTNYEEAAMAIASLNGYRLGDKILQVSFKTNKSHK

Results are given in words; binding and its absence hold for the method and conditions named. Binding seen in cells or lysates may run through a third protein. Some entries that bind do so weakly or less than the wild type.

For this assay, the target named is T1, HspBP1 (hsp70-binding protein 1) (human (endogenous in HeLa)) (UniProt Q9NZL4).
T1 sequence: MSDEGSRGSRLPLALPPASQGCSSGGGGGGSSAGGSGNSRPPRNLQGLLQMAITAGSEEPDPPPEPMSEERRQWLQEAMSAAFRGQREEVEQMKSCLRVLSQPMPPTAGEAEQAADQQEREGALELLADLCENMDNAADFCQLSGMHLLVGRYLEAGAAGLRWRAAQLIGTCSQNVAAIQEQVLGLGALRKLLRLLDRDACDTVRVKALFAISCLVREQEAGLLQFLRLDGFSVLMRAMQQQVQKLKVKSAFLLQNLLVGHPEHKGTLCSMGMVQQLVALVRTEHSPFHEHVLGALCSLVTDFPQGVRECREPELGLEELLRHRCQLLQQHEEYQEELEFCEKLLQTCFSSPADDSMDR
Description: co-IP; HeLa cells incubated with vehicle or 2 mM DEM; reversible cross-linking with DSP (15 min, 37 °C); indirect immunoprecipitation with antibodies against HspBP1; Western blotting of the immunoprecipitates. In general terms: A western blot detects proteins with antibodies after separation by electrophoresis.

Regarding G3BP1 (from UniProt Q13283 1-466), the binding entry is reported as “binds”.

Consider Grp94 (from UniProt P14625 22-803), for which the binding entry is listed as “no binding”. The value for HuR (from UniProt Q15717 1-326) was “binds”.
